The other results are listed elsewhere or left out.

The chains behind the UniProt entries cited, without tags or fusion partners. Where a name states a change or a piece, a line headed by the entry shows the natural chain unless it says otherwise.
UniProt Q9H477: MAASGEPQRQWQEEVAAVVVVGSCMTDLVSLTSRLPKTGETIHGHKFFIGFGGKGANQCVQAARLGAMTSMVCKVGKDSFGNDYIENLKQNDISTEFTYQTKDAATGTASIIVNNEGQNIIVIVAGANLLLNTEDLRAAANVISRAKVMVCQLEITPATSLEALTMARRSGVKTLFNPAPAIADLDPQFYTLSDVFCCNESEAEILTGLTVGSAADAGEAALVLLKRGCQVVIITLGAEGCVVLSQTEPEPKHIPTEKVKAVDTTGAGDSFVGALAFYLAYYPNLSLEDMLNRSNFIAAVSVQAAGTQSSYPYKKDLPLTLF
UniProt Q15311: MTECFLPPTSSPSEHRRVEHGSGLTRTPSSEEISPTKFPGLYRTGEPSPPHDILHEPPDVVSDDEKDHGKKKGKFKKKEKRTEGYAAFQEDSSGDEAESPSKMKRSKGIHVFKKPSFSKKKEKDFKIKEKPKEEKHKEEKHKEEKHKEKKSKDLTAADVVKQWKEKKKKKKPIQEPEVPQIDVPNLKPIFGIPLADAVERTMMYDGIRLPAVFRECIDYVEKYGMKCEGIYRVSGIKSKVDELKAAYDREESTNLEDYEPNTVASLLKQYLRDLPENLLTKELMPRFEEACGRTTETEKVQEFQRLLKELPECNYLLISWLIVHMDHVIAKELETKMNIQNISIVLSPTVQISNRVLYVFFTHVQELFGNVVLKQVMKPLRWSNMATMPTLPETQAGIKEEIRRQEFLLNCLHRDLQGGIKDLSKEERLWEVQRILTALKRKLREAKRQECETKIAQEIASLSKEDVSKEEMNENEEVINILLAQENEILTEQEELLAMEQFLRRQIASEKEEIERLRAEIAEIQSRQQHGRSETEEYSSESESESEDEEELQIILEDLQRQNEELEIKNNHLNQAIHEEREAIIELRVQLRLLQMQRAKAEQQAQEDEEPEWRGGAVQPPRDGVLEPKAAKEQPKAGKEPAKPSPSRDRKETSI
UniProt P20936: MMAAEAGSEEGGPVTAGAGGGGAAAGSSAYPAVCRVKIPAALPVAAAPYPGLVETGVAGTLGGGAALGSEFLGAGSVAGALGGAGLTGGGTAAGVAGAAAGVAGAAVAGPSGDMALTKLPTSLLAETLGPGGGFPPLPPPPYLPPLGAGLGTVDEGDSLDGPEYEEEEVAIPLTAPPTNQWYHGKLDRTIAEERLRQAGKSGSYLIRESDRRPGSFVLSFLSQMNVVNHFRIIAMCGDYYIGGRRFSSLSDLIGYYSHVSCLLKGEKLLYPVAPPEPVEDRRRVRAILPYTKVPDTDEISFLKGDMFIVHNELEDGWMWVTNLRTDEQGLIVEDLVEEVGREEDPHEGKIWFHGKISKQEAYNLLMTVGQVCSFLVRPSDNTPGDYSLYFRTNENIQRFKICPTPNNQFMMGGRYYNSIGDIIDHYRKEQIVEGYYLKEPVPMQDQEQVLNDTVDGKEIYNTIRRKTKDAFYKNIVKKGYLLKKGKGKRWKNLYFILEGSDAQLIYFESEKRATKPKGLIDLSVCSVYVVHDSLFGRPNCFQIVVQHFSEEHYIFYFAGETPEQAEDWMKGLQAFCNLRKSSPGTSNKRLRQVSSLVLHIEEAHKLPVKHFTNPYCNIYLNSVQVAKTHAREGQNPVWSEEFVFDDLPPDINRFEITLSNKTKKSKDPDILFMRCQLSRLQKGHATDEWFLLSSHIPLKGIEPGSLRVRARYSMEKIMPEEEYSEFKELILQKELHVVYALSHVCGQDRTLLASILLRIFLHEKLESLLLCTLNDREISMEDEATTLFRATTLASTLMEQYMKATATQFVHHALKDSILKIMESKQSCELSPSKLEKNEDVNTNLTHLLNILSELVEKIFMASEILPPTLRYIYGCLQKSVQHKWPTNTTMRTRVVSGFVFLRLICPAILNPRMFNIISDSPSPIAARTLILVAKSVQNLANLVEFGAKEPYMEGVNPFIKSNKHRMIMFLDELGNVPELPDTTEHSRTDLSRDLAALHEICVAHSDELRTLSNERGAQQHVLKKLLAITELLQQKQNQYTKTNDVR
UniProt Q99708: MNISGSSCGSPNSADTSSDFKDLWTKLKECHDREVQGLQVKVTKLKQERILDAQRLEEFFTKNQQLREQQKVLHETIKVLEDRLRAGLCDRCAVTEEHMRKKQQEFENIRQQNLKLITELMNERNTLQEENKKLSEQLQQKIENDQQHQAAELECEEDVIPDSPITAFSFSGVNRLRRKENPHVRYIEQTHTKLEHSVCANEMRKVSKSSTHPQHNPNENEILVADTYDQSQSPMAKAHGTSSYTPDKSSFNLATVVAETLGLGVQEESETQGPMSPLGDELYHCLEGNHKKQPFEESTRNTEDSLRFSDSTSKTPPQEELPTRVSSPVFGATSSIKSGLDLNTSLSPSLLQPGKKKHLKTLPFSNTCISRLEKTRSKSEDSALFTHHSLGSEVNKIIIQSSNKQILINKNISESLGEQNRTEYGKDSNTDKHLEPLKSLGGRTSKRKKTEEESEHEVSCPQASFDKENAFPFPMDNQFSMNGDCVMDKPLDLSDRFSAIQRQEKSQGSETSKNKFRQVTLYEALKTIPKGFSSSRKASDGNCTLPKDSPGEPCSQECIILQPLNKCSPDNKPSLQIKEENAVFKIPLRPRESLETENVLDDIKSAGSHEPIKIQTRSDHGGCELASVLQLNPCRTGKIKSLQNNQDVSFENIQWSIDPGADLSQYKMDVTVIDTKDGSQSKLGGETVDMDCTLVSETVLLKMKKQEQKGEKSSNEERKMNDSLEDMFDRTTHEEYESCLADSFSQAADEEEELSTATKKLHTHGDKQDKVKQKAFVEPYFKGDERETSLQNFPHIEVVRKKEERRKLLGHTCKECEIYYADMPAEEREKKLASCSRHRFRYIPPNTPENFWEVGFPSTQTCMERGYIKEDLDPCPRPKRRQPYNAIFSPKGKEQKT
UniProt Q9BYM8: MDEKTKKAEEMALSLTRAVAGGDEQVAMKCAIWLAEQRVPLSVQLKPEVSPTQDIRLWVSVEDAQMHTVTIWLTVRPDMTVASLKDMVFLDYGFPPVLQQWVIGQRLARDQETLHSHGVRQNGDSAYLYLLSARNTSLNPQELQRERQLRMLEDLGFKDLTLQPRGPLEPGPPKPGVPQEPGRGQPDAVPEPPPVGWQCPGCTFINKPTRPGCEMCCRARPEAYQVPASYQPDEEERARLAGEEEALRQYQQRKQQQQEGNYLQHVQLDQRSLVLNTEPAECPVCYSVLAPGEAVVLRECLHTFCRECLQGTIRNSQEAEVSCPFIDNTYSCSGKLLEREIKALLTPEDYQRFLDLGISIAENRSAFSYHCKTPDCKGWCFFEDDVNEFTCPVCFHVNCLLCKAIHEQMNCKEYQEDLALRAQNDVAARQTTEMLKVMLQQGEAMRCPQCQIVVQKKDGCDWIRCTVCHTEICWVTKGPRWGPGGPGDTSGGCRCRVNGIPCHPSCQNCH
UniProt Q86WH2: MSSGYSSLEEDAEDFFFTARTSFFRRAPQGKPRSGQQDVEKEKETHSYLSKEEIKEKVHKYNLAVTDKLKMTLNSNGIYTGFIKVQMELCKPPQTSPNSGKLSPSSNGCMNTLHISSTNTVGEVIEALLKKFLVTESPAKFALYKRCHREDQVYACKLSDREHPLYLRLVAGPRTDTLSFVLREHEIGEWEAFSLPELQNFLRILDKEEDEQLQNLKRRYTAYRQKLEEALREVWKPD
UniProt Q13905: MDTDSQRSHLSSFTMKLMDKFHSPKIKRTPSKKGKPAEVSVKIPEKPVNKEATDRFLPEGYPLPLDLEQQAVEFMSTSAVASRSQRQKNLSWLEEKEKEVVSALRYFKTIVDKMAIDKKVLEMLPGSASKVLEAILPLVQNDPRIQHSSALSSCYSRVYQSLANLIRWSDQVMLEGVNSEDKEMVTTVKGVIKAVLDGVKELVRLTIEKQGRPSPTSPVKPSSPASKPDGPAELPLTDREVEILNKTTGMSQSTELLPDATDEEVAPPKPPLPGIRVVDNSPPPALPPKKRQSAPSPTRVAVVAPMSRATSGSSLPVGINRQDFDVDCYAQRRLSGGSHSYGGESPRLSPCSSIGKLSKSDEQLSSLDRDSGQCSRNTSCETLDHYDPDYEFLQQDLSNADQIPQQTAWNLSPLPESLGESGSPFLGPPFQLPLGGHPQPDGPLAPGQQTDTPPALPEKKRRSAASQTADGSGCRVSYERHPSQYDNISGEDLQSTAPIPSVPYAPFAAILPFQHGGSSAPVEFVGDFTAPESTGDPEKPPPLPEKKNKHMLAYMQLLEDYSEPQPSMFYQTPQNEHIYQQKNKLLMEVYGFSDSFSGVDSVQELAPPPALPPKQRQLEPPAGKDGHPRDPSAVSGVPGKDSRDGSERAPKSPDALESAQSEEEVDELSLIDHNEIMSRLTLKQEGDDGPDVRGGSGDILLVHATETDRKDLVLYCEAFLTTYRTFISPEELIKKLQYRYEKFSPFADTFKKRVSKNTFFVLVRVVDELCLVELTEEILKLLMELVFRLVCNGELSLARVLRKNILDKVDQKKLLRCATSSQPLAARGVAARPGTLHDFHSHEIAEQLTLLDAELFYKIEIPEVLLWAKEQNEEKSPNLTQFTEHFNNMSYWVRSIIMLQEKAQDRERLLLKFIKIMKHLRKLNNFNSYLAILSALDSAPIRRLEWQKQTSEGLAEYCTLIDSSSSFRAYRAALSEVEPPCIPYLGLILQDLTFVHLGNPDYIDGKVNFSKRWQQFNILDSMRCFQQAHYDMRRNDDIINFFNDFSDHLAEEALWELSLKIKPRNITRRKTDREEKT
UniProt A4D1S5: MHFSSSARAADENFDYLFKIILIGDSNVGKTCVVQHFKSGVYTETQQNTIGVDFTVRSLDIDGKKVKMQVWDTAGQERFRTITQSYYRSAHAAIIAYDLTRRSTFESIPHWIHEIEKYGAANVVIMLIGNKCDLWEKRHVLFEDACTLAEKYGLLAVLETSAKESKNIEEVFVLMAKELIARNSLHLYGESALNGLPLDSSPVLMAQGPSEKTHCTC
UniProt P28749: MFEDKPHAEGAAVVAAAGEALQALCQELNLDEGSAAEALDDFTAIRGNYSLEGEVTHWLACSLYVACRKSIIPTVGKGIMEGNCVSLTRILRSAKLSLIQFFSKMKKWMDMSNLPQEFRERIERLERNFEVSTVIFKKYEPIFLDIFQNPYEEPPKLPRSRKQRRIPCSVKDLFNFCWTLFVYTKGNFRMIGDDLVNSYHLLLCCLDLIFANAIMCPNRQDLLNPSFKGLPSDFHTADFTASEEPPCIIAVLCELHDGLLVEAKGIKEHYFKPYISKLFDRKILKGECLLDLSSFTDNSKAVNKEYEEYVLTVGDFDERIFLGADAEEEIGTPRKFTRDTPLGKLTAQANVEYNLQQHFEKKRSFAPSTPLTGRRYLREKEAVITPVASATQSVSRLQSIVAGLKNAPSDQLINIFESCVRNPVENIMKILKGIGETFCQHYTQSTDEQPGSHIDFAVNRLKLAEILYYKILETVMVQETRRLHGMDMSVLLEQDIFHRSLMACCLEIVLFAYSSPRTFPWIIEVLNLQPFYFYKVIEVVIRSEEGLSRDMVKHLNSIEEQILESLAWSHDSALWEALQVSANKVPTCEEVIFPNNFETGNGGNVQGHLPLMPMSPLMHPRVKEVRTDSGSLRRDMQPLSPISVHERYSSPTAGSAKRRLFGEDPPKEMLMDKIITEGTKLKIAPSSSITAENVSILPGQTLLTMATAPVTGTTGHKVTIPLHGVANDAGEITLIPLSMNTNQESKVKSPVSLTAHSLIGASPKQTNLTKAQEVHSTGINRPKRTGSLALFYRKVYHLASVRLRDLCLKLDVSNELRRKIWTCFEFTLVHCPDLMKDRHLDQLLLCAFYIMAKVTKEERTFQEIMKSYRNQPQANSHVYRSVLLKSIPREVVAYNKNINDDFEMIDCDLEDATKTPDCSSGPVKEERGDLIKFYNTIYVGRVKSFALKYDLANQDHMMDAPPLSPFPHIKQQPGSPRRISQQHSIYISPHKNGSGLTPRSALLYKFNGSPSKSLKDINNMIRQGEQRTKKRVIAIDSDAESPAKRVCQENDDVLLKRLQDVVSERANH
UniProt Q9H6Z4: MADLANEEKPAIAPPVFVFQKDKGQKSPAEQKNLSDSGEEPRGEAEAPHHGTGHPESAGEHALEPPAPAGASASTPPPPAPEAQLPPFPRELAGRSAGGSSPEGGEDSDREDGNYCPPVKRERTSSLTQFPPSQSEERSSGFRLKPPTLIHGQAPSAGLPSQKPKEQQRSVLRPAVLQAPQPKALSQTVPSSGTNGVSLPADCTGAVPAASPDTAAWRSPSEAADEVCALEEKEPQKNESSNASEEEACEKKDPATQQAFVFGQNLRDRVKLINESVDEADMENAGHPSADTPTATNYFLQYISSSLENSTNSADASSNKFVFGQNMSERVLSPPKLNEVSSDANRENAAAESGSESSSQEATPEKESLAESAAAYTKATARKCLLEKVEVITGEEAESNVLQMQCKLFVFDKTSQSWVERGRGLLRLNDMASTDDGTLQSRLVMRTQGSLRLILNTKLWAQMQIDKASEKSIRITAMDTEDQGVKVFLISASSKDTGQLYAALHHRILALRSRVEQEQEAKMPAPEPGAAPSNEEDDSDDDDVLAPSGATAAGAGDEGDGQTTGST

Compound in the first assay: C1=CC2=C(C=CC(=C2)/C=C\3/C(=O)NC(=NCC4=CC=CS4)S3)N=C1
Briefly: log2 fold change, soluble protein after heating vs DMSO (PISA); higher = thermal stabilisation; K562 cells, 10 uM, 30 min; active = over 0.2 and 3.5 SD of the protein, either way, in both replicates (recomputed). The method in brief: (§1)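 K562 cells at 2×10^6 cells/mL were treated for 30 min with 10 μM compound, and aliquots were heated for 3 min over 48°C-58°C before pooling. Extraction used PBS with 0.5% NP-40 at 4°C, and soluble protein was the supernatant after 21,000xg for 90 min, measured by TMTpro 16plex LC-MS/MS with channel sums equalised. Thermal stability values, relative to control samples and from duplicates, are log2 fold changes.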
With RBBP4 isoform 2 (UniProt Q09028), the log2 fold change was inactive: 0.013.
As to RBM14 (UniProt Q96PK6), the log2 fold change was inactive: 0.362.
On the same count and under the same terms, the figure for RBM26 isoform 3 (UniProt Q5T8P6) is inactive: -0.079; for RBKS (UniProt Q9H477) it is inactive: 0.027.
On the same count and under the same terms, the figure for RAB28 (UniProt P51157) is inactive: 0.118; for RAD50, A0A494C0Y7 it is inactive: 0.049; for RALBP1 (UniProt Q15311) it is inactive: 0.012.
On the same count and under the same terms, the figure for RASA1 (UniProt P20936) is inactive: -0.659; for RASA2 (UniProt Q15283) it is inactive: 0.374; for RBBP8 isoform 2 (UniProt Q99708) it is inactive: -0.225.
With RAP1B (UniProt F5GWU8), the log2 fold change was inactive: 0.145.
On the same count and under the same terms, the figure for RBCK1 (UniProt Q9BYM8) is inactive: 0.123.
Same read-out and setting: for RAD51D (UniProt O75771) the value was inactive: -0.054; for RAB27B (UniProt O00194), inactive: -0.079.
In the case of RAPGEF5, A0A590UJR0, the log2 fold change is inactive: 0.476.
On the same count and under the same terms, for RALGAPB (UniProt Q86X10) the value was inactive: -0.132.
In the case of RASSF3 (UniProt Q86WH2), the log2 fold change is inactive: -0.044.
Still for that read-out and setting: for RAB3D (UniProt O95716) the value was inactive: -0.055.

Compound in a further assay: C1=CC2=NC=CN=C2C=C1/C=C/3\C(=O)NC(=O)S3
Described as above. The method in brief: as §1
RBBP4 isoform 2 (UniProt Q09028): the log2 fold change is inactive: 0.007.
Same read-out and setting: the figure for RBM14 (UniProt Q96PK6) is inactive: 0.044; for RAPGEF1 isoform 3 (UniProt Q13905) it is inactive: 0.024; for RAD50, A0A494C0Y7 it is inactive: -0.077.
On the same count and under the same terms, the figure for RAB19 isoform 2 (UniProt A4D1S5) is inactive: 0.099; for RBL1 (UniProt P28749) it is inactive: 0.054.
In the case of RANBP3 isoform 2 (UniProt Q9H6Z4), the log2 fold change was inactive: 0.121.
The same measure, in the same setting: for RAI1 (UniProt Q7Z5J4) the value was inactive: -0.065.
On to RAB18 (UniProt H0Y6T8), for which the log2 fold change was inactive: 0.128.
Same read-out and setting: the figure for RBM23 (UniProt Q86U06) is inactive: 0.024; for RASA2 (UniProt Q15283) it is inactive: -0.118.
Same read-out and setting: the figure for RAD51D (UniProt O75771) is inactive: 0.102; for RAB27B (UniProt O00194) it is inactive: 0.087; for RAPGEF5, A0A590UJR0 it is inactive: -0.016.
Regarding RALGAPB (UniProt Q86X10), the log2 fold change was inactive: -0.016.
The same measure, in the same setting: the figure for RASSF3 (UniProt Q86WH2) is inactive: 0.2; for RAB3D (UniProt O95716) it is inactive: 0.006.
